# Article PMC5996148
# By UniProt entry, the sequences of proteins in these tests, tags left out. Where a name states a change or a piece, a line headed by the entry shows the natural chain unless it says otherwise.
# UniProt Q86XS5: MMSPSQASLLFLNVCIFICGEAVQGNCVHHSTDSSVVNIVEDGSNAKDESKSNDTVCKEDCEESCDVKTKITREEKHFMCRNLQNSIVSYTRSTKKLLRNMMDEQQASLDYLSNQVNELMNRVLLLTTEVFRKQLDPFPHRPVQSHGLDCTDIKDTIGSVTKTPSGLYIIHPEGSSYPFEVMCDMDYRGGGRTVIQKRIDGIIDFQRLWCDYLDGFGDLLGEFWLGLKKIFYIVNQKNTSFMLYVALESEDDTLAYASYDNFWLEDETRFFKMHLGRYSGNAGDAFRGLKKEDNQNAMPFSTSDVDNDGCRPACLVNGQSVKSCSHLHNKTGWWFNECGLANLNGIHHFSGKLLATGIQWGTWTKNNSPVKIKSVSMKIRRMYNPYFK
# Values joined by “and” are separate entries in the source; they are usually repeats but may differ in a detail not shown here. Equal values may be shown once. The list shows a part of the results. For some of these results: Construct or isoform of the protein are uncertain.
# What was measured:
# Experiment in all cases: protein microarray (ProtoArray v5.0), streptavidin-Alexa Fluor 647
# Conditions in all cases: 3'-biotin; 20 mM Tris (pH 7.5), 5 mM MgCl2, 100 mM KCl, 0.1% Tween-20, A/T-rich and random oligonucleotide blockers; temperature not stated; high values mean tight binding
# [1] = biological target: ANGPTL5 (UniProt Q86XS5)
# [2] = test system: ANKHD1 (human)
# [3] = test system: ANKRD13A (human)
# [4] = test system: ANKRD17 (human)
# [5] = test system: ANKRD37 (human)
# [6] = test system: ANKRD45 (human)
# [7] = test system: ANKRD49 (human)
# [8] = test system: ANKRD50 (human)
# [9] = test system: ANKS3 (human)
# [10] = test system: ANPEP (human)
sequence,measurement,setting,value
GGGAGGCTGAGGCAGG [G4-1 biotinylated (PQS2)],binding signal,[1],-0.279 z-score
same,binding signal,[2],-0.344 z-score and -0.337 z-score
same,binding signal,[3],-0.262 z-score
same,binding signal,[4],-0.353 z-score
same,binding signal,[5],-0.304 z-score
same,binding signal,[6],-0.353 z-score
same,binding signal,[7],-0.316 z-score
same,binding signal,[8],-0.326 z-score
same,binding signal,[9],-0.335 z-score
same,binding signal,[10],-0.34 z-score
